# Measured values from article PMC9133610.
# Amino acid sequences for entries named in this document (tags omitted). Residues count along the entry.
# UniProt Q3UVX5, residues 19-1203: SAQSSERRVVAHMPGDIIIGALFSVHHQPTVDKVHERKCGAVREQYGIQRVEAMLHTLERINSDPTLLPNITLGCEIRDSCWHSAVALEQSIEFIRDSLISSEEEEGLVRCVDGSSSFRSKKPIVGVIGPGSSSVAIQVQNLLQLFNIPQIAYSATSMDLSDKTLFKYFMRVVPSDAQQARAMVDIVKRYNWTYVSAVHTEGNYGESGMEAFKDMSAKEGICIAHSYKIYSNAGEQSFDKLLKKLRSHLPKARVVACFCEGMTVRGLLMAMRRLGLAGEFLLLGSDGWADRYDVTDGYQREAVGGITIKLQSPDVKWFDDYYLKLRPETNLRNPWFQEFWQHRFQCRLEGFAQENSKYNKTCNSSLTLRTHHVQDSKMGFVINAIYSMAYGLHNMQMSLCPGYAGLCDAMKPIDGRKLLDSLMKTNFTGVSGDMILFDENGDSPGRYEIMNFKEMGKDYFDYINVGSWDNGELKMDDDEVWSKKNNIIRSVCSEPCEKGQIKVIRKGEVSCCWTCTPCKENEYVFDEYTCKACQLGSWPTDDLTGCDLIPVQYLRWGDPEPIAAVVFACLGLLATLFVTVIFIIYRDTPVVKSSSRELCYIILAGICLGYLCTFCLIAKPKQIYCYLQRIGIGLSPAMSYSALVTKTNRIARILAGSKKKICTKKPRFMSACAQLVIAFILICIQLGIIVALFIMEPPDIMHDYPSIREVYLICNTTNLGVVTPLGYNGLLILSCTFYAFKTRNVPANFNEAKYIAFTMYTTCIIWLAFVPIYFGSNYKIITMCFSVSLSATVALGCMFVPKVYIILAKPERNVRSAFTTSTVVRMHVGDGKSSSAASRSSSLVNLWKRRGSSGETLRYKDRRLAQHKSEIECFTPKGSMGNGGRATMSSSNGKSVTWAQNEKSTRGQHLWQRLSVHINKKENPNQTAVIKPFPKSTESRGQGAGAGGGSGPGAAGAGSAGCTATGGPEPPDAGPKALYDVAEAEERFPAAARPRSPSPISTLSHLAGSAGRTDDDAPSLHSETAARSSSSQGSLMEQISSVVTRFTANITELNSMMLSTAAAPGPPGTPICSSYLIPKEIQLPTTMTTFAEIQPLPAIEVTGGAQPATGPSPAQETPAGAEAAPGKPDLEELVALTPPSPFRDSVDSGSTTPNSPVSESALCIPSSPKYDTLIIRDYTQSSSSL
# Results are given in words; binding and its absence hold for the method and conditions named. Binding seen in cells or lysates may run through a third protein. Some entries that bind do so weakly or less than the wild type.
# Target: PrP (prion protein), endogenous in SMB-S15 and SMB-PS cells (mouse (endogenous in SMB-S15 and SMB-PS)) (UniProt P04925)
# Experiment: co-IP
substance,measurement,value
"Metabotropic glutamate receptor subtype 5 (mGluR5), endogenous in SMB-S15 and SMB-PS cells (from UniProt Q3UVX5 19-1203)",binding,binds
